PubChem BioAssay AID1259308, NCATS, 2017

Assay: 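Candidate targets for better recombinant protein yield in mammalian cells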 (primary screen)
Cell system: human HEK293 embryonic kidney cells stably expressing firefly luciferase (HEK-CMV-Luc2-Hygro)
Reagent: single siRNA against human genes, 0.8 pmol siRNA per well
Time to read-out: 72 h
Measurement: 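Luciferase light (ONE-Glo) measured on one replicate plate set and viability (CellTiter-Glo) on the other, scaled to a negative control siRNA, with robust z-scores and luciferase per cell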
Scale: total luciferase, z-score: higher = more reporter protein produced
Hit rule: 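Active when the median/MAD z-score for overall luciferase is greater than 3; a gene was taken forward for validation with new siRNAs if at least two of its three siRNAs passed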
Meaning of the calls: active = raised luciferase; inactive = no rise
Shown is an unselected part of about 59,000 reagents tested. Over the whole deposit, about 1,510 (2.6%) got an active call. 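Calls use total luciferase alone and ignore viability, so some active siRNAs may act by altering cell number.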 Unmarked entries are inactive. The numbers tell different reagents against one gene apart. Further read-outs or replicates are left out here. Reagent sequences are not shown.

| gene | siRNA no. | total luciferase, z-score |
| --- | --- | --- |
| RFLNA (refilin A) | 1 | -0.0755 |
| RFLNA (refilin A) | 2 | 0.806 |
| RFLNA (refilin A) | 3 | 0.0372 |
| TMEM170A (transmembrane protein 170A) | 1 | -0.371 |
| TMEM170A (transmembrane protein 170A) | 2 | 0.0108 |
| TMEM170A (transmembrane protein 170A) | 3 | 1.74 |
| NOXO1 (NADPH oxidase organizer 1) | 1 | -0.856 |
| NOXO1 (NADPH oxidase organizer 1) | 2 | -0.494 |
| NOXO1 (NADPH oxidase organizer 1) | 3 | 0.75 |
| HLA-DPA1 (major histocompatibility complex, class II, DP alpha 1) | 1 | -0.559 |
| HLA-DPA1 (major histocompatibility complex, class II, DP alpha 1) | 2 | 1.6 |
| HLA-DPA1 (major histocompatibility complex, class II, DP alpha 1) | 3 | -0.663 |
| TMEM87B (transmembrane protein 87B) | 1 | 0.64 |
| TMEM87B (transmembrane protein 87B) | 2 | 1.83 |
| TMEM87B (transmembrane protein 87B) | 3 | -1.08 |
| B3GALT5 (beta-1,3-galactosyltransferase 5) | 1 | 1.6 |
| B3GALT5 (beta-1,3-galactosyltransferase 5) | 2 | 2.48 |
| B3GALT5 (beta-1,3-galactosyltransferase 5) | 3 | -0.0351 |
| SNRPEP2 (SNRPE pseudogene 2) | 1 | 1.61 |
| SNRPEP2 (SNRPE pseudogene 2) | 2 | 5.08 (active) |
| SNRPEP2 (SNRPE pseudogene 2) | 3 | 2.89 |
| LRRC31 (leucine rich repeat containing 31) | 1 | 0.205 |
| LRRC31 (leucine rich repeat containing 31) | 2 | 0.552 |
| LRRC31 (leucine rich repeat containing 31) | 3 | 1.88 |
| NT5C1B (5'-nucleotidase, cytosolic IB) | 1 | -0.44 |
| NT5C1B (5'-nucleotidase, cytosolic IB) | 2 | -0.209 |
| NT5C1B (5'-nucleotidase, cytosolic IB) | 3 | -1.63 |
| ERCC3 (ERCC excision repair 3, TFIIH core complex helicase subunit) | 1 | -0.944 |
| ERCC3 (ERCC excision repair 3, TFIIH core complex helicase subunit) | 2 | -1.18 |
| ERCC3 (ERCC excision repair 3, TFIIH core complex helicase subunit) | 3 | -1.09 |
| CEACAM6 (CEA cell adhesion molecule 6) | 1 | 1.75 |
| CEACAM6 (CEA cell adhesion molecule 6) | 2 | -1.67 |
| CEACAM6 (CEA cell adhesion molecule 6) | 3 | 0.135 |
| CCDC186 (coiled-coil domain containing 186) | 1 | -0.218 |
| CCDC186 (coiled-coil domain containing 186) | 2 | -1.83 |
| CCDC186 (coiled-coil domain containing 186) | 3 | -0.213 |
| ARG2 (arginase 2) | 1 | -0.777 |
| ARG2 (arginase 2) | 2 | -0.776 |
| ARG2 (arginase 2) | 3 | 1.49 |
| CYP2A6 (cytochrome P450 family 2 subfamily A member 6) | 1 | -0.638 |
| CYP2A6 (cytochrome P450 family 2 subfamily A member 6) | 2 | -0.792 |
| CYP2A6 (cytochrome P450 family 2 subfamily A member 6) | 3 | -0.414 |
| PARP4 (poly(ADP-ribose) polymerase family member 4) | 1 | 0.193 |
| PARP4 (poly(ADP-ribose) polymerase family member 4) | 2 | 0.436 |
| PARP4 (poly(ADP-ribose) polymerase family member 4) | 3 | -0.576 |
| POLR3A (RNA polymerase III subunit A) | 1 | 1.28 |
| POLR3A (RNA polymerase III subunit A) | 2 | 1.31 |
| POLR3A (RNA polymerase III subunit A) | 3 | -1.55 |
| ZNF543 (zinc finger protein 543) | 1 | 1.81 |
| ZNF543 (zinc finger protein 543) | 2 | -1.27 |
| ZNF543 (zinc finger protein 543) | 3 | -0.279 |
| PMM2 (phosphomannomutase 2) | 1 | 0.107 |
| PMM2 (phosphomannomutase 2) | 2 | -0.39 |
| PMM2 (phosphomannomutase 2) | 3 | 0.967 |
| ITM2A (integral membrane protein 2A) | 1 | -2.08 |
| ITM2A (integral membrane protein 2A) | 2 | -1.62 |
| ITM2A (integral membrane protein 2A) | 3 | -0.46 |
| TCHP (trichoplein keratin filament binding) | 1 | 0.316 |
| TCHP (trichoplein keratin filament binding) | 2 | -0.728 |
| TCHP (trichoplein keratin filament binding) | 3 | 0.0612 |
| ZNF17 (zinc finger protein 17) | 1 | -0.203 |
| ZNF17 (zinc finger protein 17) | 2 | -0.0255 |
| ZNF17 (zinc finger protein 17) | 3 | -0.406 |
| WRAP53 (WD repeat containing antisense to TP53) | 1 | 1.11 |
| WRAP53 (WD repeat containing antisense to TP53) | 2 | -2.34 |
| WRAP53 (WD repeat containing antisense to TP53) | 3 | -1.05 |
| HOXA13 (homeobox A13) | 1 | 0.449 |
| HOXA13 (homeobox A13) | 2 | -1.64 |
| HOXA13 (homeobox A13) | 3 | -0.39 |
| MIX23P3 (MIX23 pseudogene 3) | 1 | 1.71 |
| MIX23P3 (MIX23 pseudogene 3) | 2 | -0.185 |
| MIX23P3 (MIX23 pseudogene 3) | 3 | -0.905 |
| ZNF138 (zinc finger protein 138) | 1 | 0.489 |
| ZNF138 (zinc finger protein 138) | 2 | 0.381 |
| ZNF138 (zinc finger protein 138) | 3 | -1.1 |
